Laboratory results taken from paper PMC7592008.

Protein sequences, listed by entry. Tags and fused reporters are not part of them.
UniProt P40763, whole entry: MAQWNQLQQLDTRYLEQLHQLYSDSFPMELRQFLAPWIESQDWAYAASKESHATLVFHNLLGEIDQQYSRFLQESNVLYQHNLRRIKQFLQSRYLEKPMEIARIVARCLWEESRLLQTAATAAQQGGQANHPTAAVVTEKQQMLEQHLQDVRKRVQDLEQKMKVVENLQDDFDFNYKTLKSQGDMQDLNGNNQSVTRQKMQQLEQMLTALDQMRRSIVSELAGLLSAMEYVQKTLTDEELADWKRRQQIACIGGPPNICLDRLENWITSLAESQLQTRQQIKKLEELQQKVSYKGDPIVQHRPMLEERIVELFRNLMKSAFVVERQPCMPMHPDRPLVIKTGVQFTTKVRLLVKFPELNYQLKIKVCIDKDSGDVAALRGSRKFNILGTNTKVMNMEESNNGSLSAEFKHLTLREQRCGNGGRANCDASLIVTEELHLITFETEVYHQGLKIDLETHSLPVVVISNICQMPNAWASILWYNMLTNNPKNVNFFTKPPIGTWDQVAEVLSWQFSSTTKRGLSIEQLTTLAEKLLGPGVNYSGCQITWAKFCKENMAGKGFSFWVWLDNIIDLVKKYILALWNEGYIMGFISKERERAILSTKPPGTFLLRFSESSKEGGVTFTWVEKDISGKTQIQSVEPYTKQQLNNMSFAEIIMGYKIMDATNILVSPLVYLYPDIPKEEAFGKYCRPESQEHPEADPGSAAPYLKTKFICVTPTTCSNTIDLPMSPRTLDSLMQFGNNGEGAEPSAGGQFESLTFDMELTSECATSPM

Target: STAT3 (UniProt P40763)
Assay: EMSA supershift
Details: anti-STAT3 antibody, nuclear extract, room temperature; nuclear extract with biotin-labeled probe, 20 min at room temperature, 4% native polyacrylamide gel; salt and pH not stated; protein in an extract; label: biotin

AGCGCAGGTGCCCTCTGGCCGGGAAGTACTTCACCAT (double strand) [MLAA-34 promoter STAT3 probe (wt)]
binding result: binds

For at least one entry, the source does not settle the construct or the ends of the probe. Where cells or extracts were used, other partners may take part.
